# Reference: PubChem BioAssay AID2417 (National Center for Advancing Translational Sciences (NCATS), 2010)
# The campaign covered roughly 140,000 compounds. About 4,300 (3.1%) were called active. Inconclusive means that the source gave no clear call. Such entries were picked first, then a sample of the others.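 The calls were made as follows: active = readout at or below -70, meaning at least 70% loss of cells showing the perinucleolar compartment, a nuclear body marking cancer cells; inconclusive = readout between -30 and a set limit; inactive = the rest.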
# Experiment: High Content Assay for Compounds that inhibit the Assembly of the Perinucleolar Compartment;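 also: plate controls were DMSO wells for no effect and camptothecin positive control wells for full effect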
# Settings: PC3M PTB-GFP, PNC prevalence imaging, 16 h; at 10 µM; active compounds read low
# How it was run: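 PC3M cells stably expressing PTB-GFP, 750–1000 cells/well, treated 16 h at 37 °C with compound (23 nl of library stock), in duplicate. After paraformaldehyde fixation and Hoechst stain, imaged at 20x; PNC prevalence scored by image analysis.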
row,SMILES,"activity change (PNC), negative = inhibition"
1,COc1ccc(CNC(=O)Nc2ccc(OC)cc2)cc1,inconclusive: -58.6%
2,O=C(COc1ccccc1F)N1CCN(S(=O)(=O)/C=C/c2ccccc2)CC1,inactive: 93.7%
3,O=C(N/N=C/c1ccncc1)c1cccc(NC(=O)c2ccccc2Cl)c1,inactive: 19.4%
4,COCCn1c(-c2ccc(OC)cc2)cnc1SCC(=O)Nc1cccc2ccccc12,inconclusive: -79.6%
5,CCN1C(=O)CC(Sc2ccccc2N)C1=O (configuration not stated),inconclusive: -69.8%
6,O=C(NCc1ccco1)c1csc2c1CCCCC2,inactive: -11.9%
7,O=C1NC(=O)C(CC(=O)N(Cc2ccco2)C2(C(=O)NC3CCCCC3)CCCCC2)N1 (configuration not stated),inconclusive: -39.4%
8,C=CCn1c(NCCO)nc2sc3c(c2c1=O)CCC3,active: -114%
9,CCOC(=O)N1CCN(c2c(NCc3ccccn3)c(=O)c2=O)CC1,inconclusive: -39.6%
10,CCCCc1ccc(NC(=O)COCC)cc1,inactive: -24.5%
11,O=C(CN1CCSCC1)c1c[nH]c2ccccc12,inconclusive: -37.2%
12,O=C(O)Cn1nnnc1SCC(=O)Nc1ccc(OC(F)(F)F)cc1,inactive: 17.9%
13,C=CCN1C(=O)S/C(=C\c2ccc(N3CCOCC3)cc2C)C1=O,inactive: 3.71%
14,CC1=N/C(=C\c2ccc([N+](=O)[O-])cc2)C(=O)N1c1ccc(Br)c(C)c1,inactive: -27.1%
15,Cc1c(Br)c([N+](=O)[O-])nn1C(C)C(=O)Nc1ccc2c(c1)OCO2 (configuration not stated),inactive: 9.96%
16,Nc1ncc(Br)cc1S(=O)(=O)NCCC(=O)N1CCN(c2ccccn2)CC1,active: -113%
17,CCN(CC)C(=O)C1CCN(CC2CC=CCC2)CC1 (configuration not stated),inconclusive: -57.1%
18,COc1cccc(-n2ccnc2SCC(=O)Nc2cc(OC)ccc2OC)c1,inconclusive: -70.8%
19,CCn1c(SCC(=O)N2CCCc3ccccc32)nnc1-c1ccoc1C,active: -100%
20,O=C(CSc1nnc(-c2ccncc2)o1)NC1C2CC3CC(C2)CC1C3 (configuration not stated),inactive: -0.972%
21,O=C(NCc1ccccc1)c1ccc(OC2CSC2)cc1,inconclusive: -30.4%
22,CCCc1cc(=O)[nH]c(SCC(=O)Nc2cc3c(cc2C(C)=O)OCO3)n1,inconclusive: -62.3%
23,COC(=O)c1c(NC(=O)Cc2cccs2)sc2c1CCCC2,inconclusive: -66.4%
24,COc1ccc(-c2noc(CN(C(=O)c3cccs3)C(C)C)n2)cc1,inconclusive: -68.3%

row,SMILES,"activity change (PNC), negative = inhibition"
1,Cc1cc(C(=O)CN2CCCCC2)c(C)n1-c1ccc(F)cc1,inconclusive: -50.9%
2,O=C(Nc1ccc(OC(F)(F)C(F)F)c(NC(=O)c2cccc(F)c2)c1)c1cccc(F)c1,inactive: -29.5%
3,C=CCn1c(SCCC#N)nnc1-c1ccncc1,inconclusive: -33.1%
4,Cc1cc2cc(CNC(=O)CCC(=O)O)ccc2[nH]1,inconclusive: -30.7%
5,Cn1c(=O)cc(OCCCC(=O)Nc2ccc3c(c2)OCCO3)c2ccccc21,inconclusive: -43.9%
6,Cc1ccc(/C=C/C(=O)Nc2cccnc2)o1,inconclusive: -45.3%
7,N=C1C(c2nc3ccccc3c(=O)[nH]2)=C(O)CN1CCc1ccccc1,inactive: 21.7%
8,CCS(=O)(=O)c1ccc(O)c(NC(=O)c2cc(OC)c(OC)c(OC)c2)c1,inconclusive: -34.4%
9,O=C(COc1ccccc1Cl)NNC(=O)C1CCCO1 (configuration not stated),inconclusive: -76.2%
10,N=c1sccn1CC(=O)Nc1cccc2ccccc12,inconclusive: -59.8%
11,O=C(Cc1cccs1)Nc1nc(-c2ccc(F)cc2F)cs1,inconclusive: -62.4%
12,Cc1ccc(CNn2cnnc2SCc2ccc(F)cc2)cc1,inconclusive: -40.3%
13,COc1ccc(-n2nnnc2-c2cccc(OC)c2)cc1,active: -82.6%
14,Cc1cccc(N(CC(N)=O)C2SC(=O)N(c3ccccc3)C2=O)c1 (configuration not stated),inconclusive: -72.3%
15,O=C(NCc1ccc2c(c1)OCO2)c1ccc(CS(=O)(=O)c2ccc(Br)cc2)o1,active: -87.1%
16,CC(C)(C)NC(=O)c1nc2nc(-c3ccccc3)cc(C(F)(F)F)n2n1,inactive: 0.592%
17,COc1cccc2cc(C(=O)N(Cc3ccccc3)CC3CCCO3)c(=O)oc12 (configuration not stated),inactive: 349%
18,CCOC(=O)N1CCN(S(=O)(=O)c2ccc3c(c2)SC(C)C(=O)N3)CC1 (configuration not stated),inconclusive: -46%
19,CCC(C)(C)n1nnnc1C(c1ccc2ncccc2c1)N1CCCCCC1 (configuration not stated),inactive: 9.21%
20,O=C(O)CSc1ccccn1,inconclusive: -54.6%
21,Cc1nc(NCc2ccccc2)c(C(N)=O)c2c1COC(C)(C)C2,active: -122%
22,CCCC(=O)Nc1ccc(NC(=O)CCc2ccccc2)cn1,active: -114%
23,Clc1ccc(-c2nnc3n2CCCCC3)cc1,inconclusive: -61.8%

# Quoted at random: 3 entries already listed
row,SMILES,"activity change (PNC), negative = inhibition"
21,O=C(NCc1ccccc1)c1ccc(OC2CSC2)cc1,inconclusive: -30.4%
16,Nc1ncc(Br)cc1S(=O)(=O)NCCC(=O)N1CCN(c2ccccn2)CC1,active: -113%
5,CCN1C(=O)CC(Sc2ccccc2N)C1=O (configuration not stated),inconclusive: -69.8%
